1 molecule from paper PMC7283462 can be followed below.

Results are given in words; binding and its absence hold for the method and conditions named. Binding seen in cells or lysates may run through a third protein. A result given as binding can be weak or reduced; the word gives no strength. Tags and fused reporters may be left off the sequences shown.

For experiment [1], the target named is GFP-Cap (porcine circovirus type 2, strain HZ0201). Put plainly: co-IP; HEK293T co-transfected with FLAG-tagged host protein and GFP-Cap or Myc-Cap for 48 h; NP-40 lysates immunoprecipitated with anti-FLAG beads, anti-GFP or anti-Myc mAbs; western blot. In general terms: Immunoblotting shows a protein as a band on a membrane.
Experiment [2] concerns the target Myc-Cap (porcine circovirus type 2, strain HZ0201). The description is as above.

B1: FLAG-MX2 (protein, UniProt A7VK00 1-711)
chain: MPKPRMSWPYQRHRQASSPPHPHKEMNFFPQQPLPLGAGPGQMTFPLNWQMGGKDLTKGLNMLTLSPQQPGGKSGQQTSKGPENNLYSPFEEKVRPCIDLIDSLRALGVEQDLALPTIAVIGDQSSGKSSVLEALSGVPLPRGSGIITRCPLALRLKKKECPWQGRISYRKVELQLQDPSQVEREIRKAQDAIAGSGVGISHELISLEVTSPEVPDLTLIDLPGITRVAVGNQPQDIGLQIKALIRKYIQEQQTINLVVVPCNVDIATTEALRMAQEVDPEGDRTIGILTKPDLVDTGAEKVVLNVMQNLTYHLKKGYMIVKCRGQQEILNKLSLAEATKREIAFFHSHPHFRILLEEGKATVPRLAERLTVELIGHISKSLPLLFSQIKEIHQSATEELRLCGASVPSNDADKMFFLIEKIKVFNQDIENLAEGEEIVKEKEARLYNKIREEFKSWIVTLDCNSKKVKNIIHEEVSKYDRQYRGKELMGFVSYKTFESIVRQYLEELVDPALGMLQTVVEIVRQTFSDTAQKNFGEFSNLNQTTQNKVDSIAARAAERAEGLIRLQFRMEQLVFCQDDIYRVDLKAVREELFNPVAEHPQSLQLRLPFVNGPSPVSSITEIGVHVNAYFMGTSQRLANQIPFIIQYCVLQESRDHLQKAMMQMLQGREQYSWLLQEESHTSAKRHFLKEKIHRLAEARHTLSKFAQSLQG
Turning to B1, the binding entry in experiment [1] and in experiment [2] was “binds” throughout.
